From article PMC5447080
Results are given in words; binding and its absence hold for the method and conditions named. In cells and extracts the contact can be indirect. Some entries that bind do so weakly or less than the wild type.

Protein sequences, listed by entry. Tags and fused reporters are not part of them.
UniProt Q9UBQ5: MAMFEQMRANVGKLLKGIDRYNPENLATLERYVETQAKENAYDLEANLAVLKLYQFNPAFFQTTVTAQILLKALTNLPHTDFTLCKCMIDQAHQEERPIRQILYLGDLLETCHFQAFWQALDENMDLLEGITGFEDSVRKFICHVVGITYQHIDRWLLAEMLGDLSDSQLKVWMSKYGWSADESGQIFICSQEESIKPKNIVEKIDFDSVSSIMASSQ
UniProt O00303: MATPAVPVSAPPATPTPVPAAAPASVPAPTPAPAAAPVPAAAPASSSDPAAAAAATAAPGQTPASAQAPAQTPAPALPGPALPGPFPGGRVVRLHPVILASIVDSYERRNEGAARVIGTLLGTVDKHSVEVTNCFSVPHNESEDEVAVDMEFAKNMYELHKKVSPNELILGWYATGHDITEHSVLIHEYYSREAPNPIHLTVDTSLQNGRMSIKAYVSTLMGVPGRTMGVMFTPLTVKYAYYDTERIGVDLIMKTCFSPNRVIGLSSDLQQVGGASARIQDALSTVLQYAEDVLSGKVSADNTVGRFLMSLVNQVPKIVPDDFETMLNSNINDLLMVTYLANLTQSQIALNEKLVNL
UniProt P60228: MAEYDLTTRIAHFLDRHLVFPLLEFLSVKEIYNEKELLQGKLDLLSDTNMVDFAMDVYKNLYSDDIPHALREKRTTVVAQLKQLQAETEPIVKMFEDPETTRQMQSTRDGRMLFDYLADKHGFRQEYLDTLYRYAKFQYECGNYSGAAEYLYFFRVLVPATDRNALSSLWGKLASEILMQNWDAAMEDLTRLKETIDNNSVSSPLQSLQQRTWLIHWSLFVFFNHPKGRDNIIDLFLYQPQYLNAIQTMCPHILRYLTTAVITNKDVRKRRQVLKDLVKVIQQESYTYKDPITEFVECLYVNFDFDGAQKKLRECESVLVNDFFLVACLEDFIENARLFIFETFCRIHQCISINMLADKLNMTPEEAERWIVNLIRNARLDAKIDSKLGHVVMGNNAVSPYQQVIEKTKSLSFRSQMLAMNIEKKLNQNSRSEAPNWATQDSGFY
UniProt O15372: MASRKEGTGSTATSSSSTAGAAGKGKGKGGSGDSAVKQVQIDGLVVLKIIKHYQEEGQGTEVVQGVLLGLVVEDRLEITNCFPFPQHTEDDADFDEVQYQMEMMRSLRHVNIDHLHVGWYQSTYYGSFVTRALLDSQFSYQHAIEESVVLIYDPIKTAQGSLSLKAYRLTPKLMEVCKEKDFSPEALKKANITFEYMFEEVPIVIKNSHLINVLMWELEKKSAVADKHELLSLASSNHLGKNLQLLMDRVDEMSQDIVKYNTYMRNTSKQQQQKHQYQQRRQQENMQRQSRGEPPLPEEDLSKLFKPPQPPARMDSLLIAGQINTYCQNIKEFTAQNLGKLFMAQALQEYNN

Experiments:
Assay in all cases: pull-down; co-purification on a GST column from E. coli co-expressing the eight tagged eIF3 subunits; retained proteins seen as bands on a Coomassie stained SDS-PAGE gel
[1] = molecular target: human eukaryotic translation initiation factor 3 subunit k (His6-GST-k) (human) (UniProt Q9UBQ5)
[2] = molecular target: human eukaryotic translation initiation factor 3 subunit f (His6-GST-f) (human) (UniProt O00303)
[3] = molecular target: human eukaryotic translation initiation factor 3 subunit e (His6-GST-e) (human) (UniProt P60228)

Measured: binding

human eukaryotic translation initiation factor 3 subunit h (His6-MBP-h) (from UniProt O15372 1-352)
binds: all assays above
